Reference: article PMC10838158

Molecular target: CMV MP–4M8H (cucumber mosaic virus movement protein, 4Myc-8His-tagged) (cucumber mosaic virus)
Test: affinity purification with mass spectrometry; purified CMV MP–4M8H (2 µg) incubated 4 h at 4 °C with dialysed Arabidopsis PECP (500 µg) in 0.14 M NaCl, 8.0 mM sodium phosphate, 2.0 mM potassium phosphate, 10 mM KCl, pH 7.4; immobilised anti-c-Myc IgG; SDS-PAGE bands analysed by LC-MS/MS; only the target purified

B1: AtERdj2B (endogenous in Arabidopsis PECP) (protein, UniProt F4JIN3 1-661)
chain: MAESEENSVLFPIFILTMMAIPLVPYTFVKLSRAFSKKQRSIHCQCLECDRSGKYKRSISQSISSFTSCSNLTVVLLWIVMIFLIYHTKNMSRESQLFEPFGILGLEPGASDSEIKKAYRRLSIQYHPDKNPDPEANKYFVESIAKAYQALTDPLSRENFEKYGHPDGRQGYTMGIALPQFILNMNGESGGILLLCTVGLCILLPLVIASIYLWRSSKYTGNHVKLQTRQAYFELLQPSLTPSKVMDIFIRAAEYAEISVRKSDDESLQKLFMSVKSELNLDPKKLKQEEAKFWKKHPATIKTELLIQKQLTRESSVLSPTLQRDFRHVLEFAPRLLEDLIKMAVIPRNEQGRGWLRPALGVMELSQCIVQAVPLSARKSSSEDIAPFLQLPHFNESIAKSIALQVKSFQKFQELSLAERSKLLREVVSLSETDVQDIEKVLEMIPSLKINVTCKTEGEEGIQEGDIMTVQAWITLKRPNGLIGAIPHSPYFPFHKEENFWVLLADSNHVWFFQKVKFMDEAGAIAAASNTITETMEPLGASVKETNDAVKEAVEKVKSGSRLVMGRLLAPGEGTYNLTCFCLSDTWIGCDQKTSLKVEVLKRTRDVEGENAEEGLEEEDDEIEEEDYESEYSEDEEDKKRGSKKKVNKESSSEESGSDEE
binding: binds

These are yes or no findings as the source states them, for the method shown. In cells and extracts the contact can be indirect. Here binding means that the protein was enriched with, or labelled near, the bait; the list need not be complete.
